# From paper PMC1828611
# The chains behind the UniProt entries cited, without tags or fusion partners. Where a name states a change or a piece, a line headed by the entry shows the natural chain unless it says otherwise.
# UniProt Q9VCQ7: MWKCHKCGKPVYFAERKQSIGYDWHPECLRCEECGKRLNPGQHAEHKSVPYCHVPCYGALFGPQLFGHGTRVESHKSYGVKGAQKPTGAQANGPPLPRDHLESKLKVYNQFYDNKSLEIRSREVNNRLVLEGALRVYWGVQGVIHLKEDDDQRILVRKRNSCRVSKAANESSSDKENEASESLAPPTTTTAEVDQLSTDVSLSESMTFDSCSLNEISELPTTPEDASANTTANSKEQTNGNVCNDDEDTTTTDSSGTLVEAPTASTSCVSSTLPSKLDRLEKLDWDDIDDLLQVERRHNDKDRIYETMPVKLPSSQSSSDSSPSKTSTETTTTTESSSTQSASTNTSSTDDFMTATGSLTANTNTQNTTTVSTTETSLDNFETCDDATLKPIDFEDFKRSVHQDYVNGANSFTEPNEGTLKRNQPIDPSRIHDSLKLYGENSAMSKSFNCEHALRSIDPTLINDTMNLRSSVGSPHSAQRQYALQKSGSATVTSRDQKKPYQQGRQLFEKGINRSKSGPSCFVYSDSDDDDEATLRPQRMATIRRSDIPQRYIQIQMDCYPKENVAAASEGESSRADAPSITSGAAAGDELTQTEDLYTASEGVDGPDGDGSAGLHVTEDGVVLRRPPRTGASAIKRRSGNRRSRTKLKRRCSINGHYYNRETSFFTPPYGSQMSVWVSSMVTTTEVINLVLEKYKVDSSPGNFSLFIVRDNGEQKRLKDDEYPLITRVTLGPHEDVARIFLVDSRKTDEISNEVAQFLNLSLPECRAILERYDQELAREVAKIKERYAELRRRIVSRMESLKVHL
# Results are given in words; binding and its absence hold for the method and conditions named. Binding seen in cells or lysates may run through a third protein. Binding calls can cover weak binding; strength is not graded here. For part of these data: Tags and fused reporters may be left off the sequences shown.
# Legend:
# [1] = target: Drosophila RASSF ortholog (dRASSF), endogenous (Drosophila melanogaster (endogenous in Kc cells)) (UniProt Q9VCQ7); assay: co-IP; endogenous proteins immunoprecipitated from Kc cell lysates with dRASSF antibodies (or Sav antibodies, Figure S2C); control Myc antibodies; blotted with Hpo66 and dRASSF antibodies
# [2] = target: GFP-dRASSF (Drosophila melanogaster); assay: co-IP; Hpo-Myc, Sav-HA and GFP-dRASSF cotransfected in Kc cells; anti-Myc, anti-HA, anti-dRASSF or control (anti-Flag) immunoprecipitates blotted for GFP-dRASSF, Sav-HA, Hpo-Myc and phospho-MST1
# [3] = target: GFP-dRASSF (Drosophila melanogaster); assay: co-IP; Hpo-Flag or Hpo^ΔC-Flag cotransfected with GFP-dRASSF in Kc cells; anti-dRASSF or control (anti-Myc) immunoprecipitates blotted for GFP-dRASSF and Hpo-Flag
# [4] = target: Hpo^KD-Flag (kinase-dead form of Hpo) (Drosophila melanogaster) (UniProt Q8T0S6); assay: co-IP; separate Kc cell lysates expressing Hpo^KD-Flag, HA-dRASSF and Sav-HA (200 ng or 400 ng) mixed, incubated overnight, immunoprecipitated with Flag antibody; blots probed with HA and Flag antibodies
binding [1],binding [2],Binder,also measured
binds,–,"Hippo (Hpo), endogenous (protein, UniProt Q8T0S6 1-669) MSEPEVTSVVDMKSPNISSSCSFFKLKKLSEESLLQPPEKVFDIMYKLGEGSYGSVYKAVHKESSSIVAIKLVPVESDLHEIIKEISIMQQCDSPYVVRYYGSYFKQYDLWICMEYCGAGSVSDIMRLRKKTLTEDEIATILSDTLQGLVYLHLRRKIHRDIKAANILLNTEGYAKLADFGVAGQLTDTMAKRNTVIGTPFWMAPEVIEEIGYDCVADIWSLGITALEMAEGKPPYGEIHPMRAIFMIPQKPPPSFREPDRWSTEFIDFVSKCLVKEPDDRATATELLEHEFIRNAKHRSILKPMLEETCAIREQQRANRSFGGVLAASQAKSLATQENGMQQHITDNAFMEDPGTLVPEKFGEYQQSSASDATMIAHAEQGVDEGTLGPGGLRNLSKAAAPAAASSAASPLDMPAVDSGTMVELESNLGTMVINSDSDDSTTAKNNDDQKPRNRYRPQFLEHFDRKNAGDGRGDEKPIATEYSPAAAEQQQQQQQQQQQQQQDEQHLASGANDLNNWEHNMEMQFQQISAINQYGLQQHQQQQQVLMAYPLMNEQLIALNNQPNLLLSNAAPMGQQGIPAAAPAQPPPAYQNQHMHTQSHAYVEGEFEFLKFLTFDDLNQRLCNIDHEMELEIEQLNKKYNAKRQPIVDAMNAKRKRQQNINNNLIKI",–
–,binds,"Hpo-Myc (protein, UniProt Q8T0S6 1-669) MSEPEVTSVVDMKSPNISSSCSFFKLKKLSEESLLQPPEKVFDIMYKLGEGSYGSVYKAVHKESSSIVAIKLVPVESDLHEIIKEISIMQQCDSPYVVRYYGSYFKQYDLWICMEYCGAGSVSDIMRLRKKTLTEDEIATILSDTLQGLVYLHLRRKIHRDIKAANILLNTEGYAKLADFGVAGQLTDTMAKRNTVIGTPFWMAPEVIEEIGYDCVADIWSLGITALEMAEGKPPYGEIHPMRAIFMIPQKPPPSFREPDRWSTEFIDFVSKCLVKEPDDRATATELLEHEFIRNAKHRSILKPMLEETCAIREQQRANRSFGGVLAASQAKSLATQENGMQQHITDNAFMEDPGTLVPEKFGEYQQSSASDATMIAHAEQGVDEGTLGPGGLRNLSKAAAPAAASSAASPLDMPAVDSGTMVELESNLGTMVINSDSDDSTTAKNNDDQKPRNRYRPQFLEHFDRKNAGDGRGDEKPIATEYSPAAAEQQQQQQQQQQQQQQDEQHLASGANDLNNWEHNMEMQFQQISAINQYGLQQHQQQQQVLMAYPLMNEQLIALNNQPNLLLSNAAPMGQQGIPAAAPAQPPPAYQNQHMHTQSHAYVEGEFEFLKFLTFDDLNQRLCNIDHEMELEIEQLNKKYNAKRQPIVDAMNAKRKRQQNINNNLIKI",–
–,–,"Hpo-Flag (protein, UniProt Q8T0S6 1-669) MSEPEVTSVVDMKSPNISSSCSFFKLKKLSEESLLQPPEKVFDIMYKLGEGSYGSVYKAVHKESSSIVAIKLVPVESDLHEIIKEISIMQQCDSPYVVRYYGSYFKQYDLWICMEYCGAGSVSDIMRLRKKTLTEDEIATILSDTLQGLVYLHLRRKIHRDIKAANILLNTEGYAKLADFGVAGQLTDTMAKRNTVIGTPFWMAPEVIEEIGYDCVADIWSLGITALEMAEGKPPYGEIHPMRAIFMIPQKPPPSFREPDRWSTEFIDFVSKCLVKEPDDRATATELLEHEFIRNAKHRSILKPMLEETCAIREQQRANRSFGGVLAASQAKSLATQENGMQQHITDNAFMEDPGTLVPEKFGEYQQSSASDATMIAHAEQGVDEGTLGPGGLRNLSKAAAPAAASSAASPLDMPAVDSGTMVELESNLGTMVINSDSDDSTTAKNNDDQKPRNRYRPQFLEHFDRKNAGDGRGDEKPIATEYSPAAAEQQQQQQQQQQQQQQDEQHLASGANDLNNWEHNMEMQFQQISAINQYGLQQHQQQQQVLMAYPLMNEQLIALNNQPNLLLSNAAPMGQQGIPAAAPAQPPPAYQNQHMHTQSHAYVEGEFEFLKFLTFDDLNQRLCNIDHEMELEIEQLNKKYNAKRQPIVDAMNAKRKRQQNINNNLIKI",binding [3]: binds
–,no binding,"Sav-HA (protein, UniProt Q9VCR6 1-608) MNYLTILLCNRKPTMLSRRNKEKSQHKEGVVGKYMKKDTPPDISVINVWSDQRAKKKSLQRCASTSPSCEFHPRSSSTSRNTYSCTDSQPDYYHARRAQSQMPLQQHSHSHPHSLPHPSHPHVRSHPPLPPHQFRASSNQLSQNSSNYVNFEQIERMRRQQSSPLLQTTSSPAPGAGGFQRSYSTTQRQHHPHLGGDSYDADQGLLSASYANMLQLPQRPHSPAHYAVPPQQQQHPQIHQQHASTPFGSTLRFDRAAMSIRERQPRYQPTSSPMQQQQQQQQQQQQQLQHTQLAAHLGGSYSSDSYPIYENPSRVISMRATQSQRSESPIYSNTTASSATLAVVPQHHHQGHLAVPSGSGGGSLSGSGRGGSSGSVRGASTSVQSLYVPPRTPPSAVAGAGGSANGSLQKVPSQQSLTEPEELPLPPGWATQYTLHGRKYYIDHNAHTTHWNHPLEREGLPVGWRRVVSKMHGTYYENQYTGQSQRQHPCLTSYYVYTTSAEPPKAIRPEASLYAPPTHTHNALVPANPYLLEEIPKWLAVYSEADSSKDHLLQFNMFSLPELEGFDSMLVRLFKQELGTIVGFYERYRRALILEKNRRAGQNQNQNQ",binding [4]: binds
no binding,–,"Salvador (Sav), endogenous (protein, UniProt Q9VCR6 1-608) MNYLTILLCNRKPTMLSRRNKEKSQHKEGVVGKYMKKDTPPDISVINVWSDQRAKKKSLQRCASTSPSCEFHPRSSSTSRNTYSCTDSQPDYYHARRAQSQMPLQQHSHSHPHSLPHPSHPHVRSHPPLPPHQFRASSNQLSQNSSNYVNFEQIERMRRQQSSPLLQTTSSPAPGAGGFQRSYSTTQRQHHPHLGGDSYDADQGLLSASYANMLQLPQRPHSPAHYAVPPQQQQHPQIHQQHASTPFGSTLRFDRAAMSIRERQPRYQPTSSPMQQQQQQQQQQQQQLQHTQLAAHLGGSYSSDSYPIYENPSRVISMRATQSQRSESPIYSNTTASSATLAVVPQHHHQGHLAVPSGSGGGSLSGSGRGGSSGSVRGASTSVQSLYVPPRTPPSAVAGAGGSANGSLQKVPSQQSLTEPEELPLPPGWATQYTLHGRKYYIDHNAHTTHWNHPLEREGLPVGWRRVVSKMHGTYYENQYTGQSQRQHPCLTSYYVYTTSAEPPKAIRPEASLYAPPTHTHNALVPANPYLLEEIPKWLAVYSEADSSKDHLLQFNMFSLPELEGFDSMLVRLFKQELGTIVGFYERYRRALILEKNRRAGQNQNQNQ",–
